The source of these data is article PMC7819943, “Rice protein-binding microarrays: a tool to detect cis-acting elements near promoter regions in rice”.

Some of the results follow.

The assay deals with T1, OsSMF1 (Oryza sativa, UniProt Q6ZLB0 1-436).
T1 sequence: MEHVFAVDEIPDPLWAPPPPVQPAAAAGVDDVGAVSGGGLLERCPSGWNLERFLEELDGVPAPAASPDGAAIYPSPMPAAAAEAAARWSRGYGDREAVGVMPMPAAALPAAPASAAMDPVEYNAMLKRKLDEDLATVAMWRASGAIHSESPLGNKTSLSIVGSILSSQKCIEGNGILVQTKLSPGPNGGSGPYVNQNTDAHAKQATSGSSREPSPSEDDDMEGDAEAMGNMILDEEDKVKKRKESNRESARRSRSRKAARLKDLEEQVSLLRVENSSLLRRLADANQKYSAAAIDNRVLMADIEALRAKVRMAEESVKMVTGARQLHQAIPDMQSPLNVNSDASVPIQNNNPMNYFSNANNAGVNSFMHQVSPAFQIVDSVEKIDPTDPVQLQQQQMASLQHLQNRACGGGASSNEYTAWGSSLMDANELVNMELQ
Kind of assay: protein-binding microarray (RPBM); PBS, 2% BSA, 51.3 ng/ul salmon testes DNA, 50 uM zinc acetate, 200 nM TF, 25 C, 1 h; high values mean tight binding. The following applies: protein: recombinant; tags: N-terminal polyhistidine and DsRed monomer fusion (pET32a); chain copies: 2; label: CyDye5-dUTP incorporated in the synthesized complementary strand; 3' TTTTT single-stranded linker to array surface; dsDNA, one strand shown. The essentials:
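An Axon 4000B scanner gave the binding signal as per-feature fluorescence intensity in arbitrary units. This followed washing of a custom Agilent array that had been incubated for 1 h at 25 °C with 200 nM protein in PBS, 2% BSA, salmon testes DNA and 50 µM zinc acetate. The proteins were transcription factors fused at the N-terminus to polyhistidine and DsRed, expressed in E. coli BL21-CodonPlus and purified on Ni–NTA.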
As for “TGGAACTGTTACCCTGTAGCAGAATGCAGCGTTCTCGCGTCGGAGTCACCTAGTGCAG”, the binding signal is 3160 fluorescence intensity (a.u.).
Take “AGGGTGGTGACAGGTTTGTCAGGTCAATCAAAACCCGCCGCGGAGTCACCTAGTGCAG”: the binding signal was 3180 fluorescence intensity (a.u.).
The result for “CAGCCATCATTGGGCCTGTCCCCATCTTCCATTGGGCCGGCGGAGTCACCTAGTGCAG” reads 32600 fluorescence intensity (a.u.).
The result for “CCGGCCACTCCCTTCAGCGAAATCCGTAGTCAGCAAGTTGCGGAGTCACCTAGTGCAG” reads 4390 fluorescence intensity (a.u.); that for “CAGCTGCGCTTGGTGCTTCTGCTTTTGTAGCACATCATCACGGAGTCACCTAGTGCAG”, 37100 fluorescence intensity (a.u.).
For “GTGTGGCCCCATGCTTGCAAATGCTAGGCCTCATTGTTTTCGGAGTCACCTAGTGCAG” the value was 22500 fluorescence intensity (a.u.).
On to “GTTTTGTGATTTGGTACATGTGGTAGCATTCACCAAATGTCGGAGTCACCTAGTGCAG”, for which the binding signal is 39600 fluorescence intensity (a.u.).
The result for “CCTGTTACGTGGTACATGAGAGTGGTAAGCCATTTCTCTTCGGAGTCACCTAGTGCAG” reads 4140 fluorescence intensity (a.u.); that for “CGGCGGCAACACTGTCACTGTTCCCATCTTGAATTATGTCCGGAGTCACCTAGTGCAG”, 3270 fluorescence intensity (a.u.).
The result for “AAGGCTTTGGGCCTCTTGGTCCAGTCAAAGGATAAACCCACGGAGTCACCTAGTGCAG” reads 3600 fluorescence intensity (a.u.).
The result for “CATGTTTGTTGCTGCTGACGGTGGTGATGGCGTGTGAGCACGGAGTCACCTAGTGCAG” reads 6850 fluorescence intensity (a.u.); that for “TCGCCCTCGACTCCGCTCTCCTGCGCTGCCCGATTTCCATCGGAGTCACCTAGTGCAG”, 3330 fluorescence intensity (a.u.); that for “GAGAAGAGATTGCTGACTAGGATTGTTGGCCCCACATTTTCGGAGTCACCTAGTGCAG”, 18500 fluorescence intensity (a.u.).
For “CCAGTAGCCCGTAGTCACGTTCCCAACCCCGCCCAGTGATCGGAGTCACCTAGTGCAG”, the binding signal was 4860 fluorescence intensity (a.u.).
The result for “CTGATGTCAACCGTCGAGTCAAGCGGTGGTGGTGGTGGCGCGGAGTCACCTAGTGCAG” reads 3360 fluorescence intensity (a.u.); that for “GCACATCTTCCTTAATTGCCAAAAGAGTAAATTTCACGAACGGAGTCACCTAGTGCAG”, 43300 fluorescence intensity (a.u.).
The result for “TCACCTAGGCCGAACCCTACCCCGCTGCACACGTGGACGTCGGAGTCACCTAGTGCAG” reads 17800 fluorescence intensity (a.u.).
The result for “AGAGCAATTGACTGACATACCATTATTAAGATGAACTGATCGGAGTCACCTAGTGCAG” reads 3370 fluorescence intensity (a.u.); that for “CTAACTTAAAATAGAATCAAACAGTACAACAAATATAAATCGGAGTCACCTAGTGCAG”, 9880 fluorescence intensity (a.u.); that for “GATCCGCTCAAAATCGCGCATCCAAACCCTCGCCCTCCTCCGGAGTCACCTAGTGCAG”, 3440 fluorescence intensity (a.u.).
Turning to “CTTATTCAAGCCATGCATTCTAAGGTGACTGACATGTGGGCGGAGTCACCTAGTGCAG”, the binding signal was 3770 fluorescence intensity (a.u.).
The result for “GCGGTAACAAATCAGCGTGGACACCTGGCGTCACGCCATTCGGAGTCACCTAGTGCAG” reads 4920 fluorescence intensity (a.u.); that for “ATACACTTCAGATTTGCTATGATCACTGACACTGACACGACGGAGTCACCTAGTGCAG”, 3620 fluorescence intensity (a.u.).
Consider “CCGGTGACTCAGTAATCACTTCGCACATTAACTCTCTCTCCGGAGTCACCTAGTGCAG”, for which the binding signal is 6080 fluorescence intensity (a.u.).
As for “AGTGTCTAGTACTAGTTTCTTGATGACGTGGAGTTTATAACGGAGTCACCTAGTGCAG”, the binding signal is 14100 fluorescence intensity (a.u.).
The result for “GTTTTGGTCATTTTGCTATATGACTTTGTTTCAATAATTTCGGAGTCACCTAGTGCAG” reads 3990 fluorescence intensity (a.u.); that for “AAGATGACGGTTTTAGCCCGTCACCAATGTGTGTCATCAGCGGAGTCACCTAGTGCAG”, 8880 fluorescence intensity (a.u.); that for “AACAAGACAGTGCTGTTGCTGAAACCAAACTTGGGCCTTACGGAGTCACCTAGTGCAG”, 16800 fluorescence intensity (a.u.).
For the sequence “TCCTCATCCCTGCTTCCTCTTCTACACCTCATTTTCCGCTCGGAGTCACCTAGTGCAG”, the binding signal is 3530 fluorescence intensity (a.u.).
The result for “TCGCCAACACCAACCTAGTCACTAGATCATCGGCTTGTCTCGGAGTCACCTAGTGCAG” reads 5300 fluorescence intensity (a.u.).
On to “CCCGCCGCGCCGCGTCCCGGCCACCGCGCCGCCCGCCGCGCGGAGTCACCTAGTGCAG”, for which the binding signal is 4250 fluorescence intensity (a.u.).
The result for “TATATATCTGGGTGATTGGTGGTGAGTAGTTGTTCTTGCTCGGAGTCACCTAGTGCAG” reads 3170 fluorescence intensity (a.u.); that for “TAAACCAGTTGTCACATGCCAGTCATCACATCAGCTCGCGCGGAGTCACCTAGTGCAG”, 6130 fluorescence intensity (a.u.).
The result for “AATACTAAATCGAGGAGGCTTTGTTTTGGTGAACTATAAGCGGAGTCACCTAGTGCAG” reads 25300 fluorescence intensity (a.u.); that for “ACACGGTCCCTAGACGATTTTAACTGACGTAACATCAACACGGAGTCACCTAGTGCAG”, 4880 fluorescence intensity (a.u.).
For “ACTATCTACCTTGCGTGTCGGAAATTGTCATTCCGTTTATCGGAGTCACCTAGTGCAG” the value was 3680 fluorescence intensity (a.u.); for “GACTGGTGGACGTACGTCTGCGTCGAGTCTGTCGGTCTAGCGGAGTCACCTAGTGCAG”, 4290 fluorescence intensity (a.u.).
With “GCGTAACCATCGTCACCACCACCGCGCCATCGCGGCTGGACGGAGTCACCTAGTGCAG”, the binding signal was 4010 fluorescence intensity (a.u.).
The result for “AAAACTTAATTAGTGCCAGGTCATACAGATTCCAGATAATCGGAGTCACCTAGTGCAG” reads 6890 fluorescence intensity (a.u.).
Consider “TCGGTCGGTACTCAGTTCTTTGCCAACTACCACTGTATAACGGAGTCACCTAGTGCAG”, for which the binding signal was 4650 fluorescence intensity (a.u.).
As to “ACTCCACAAGCATGCCATCCCATGAGGTGGGCTTTTGTGACGGAGTCACCTAGTGCAG”, the binding signal was 3510 fluorescence intensity (a.u.).
In the case of “AAAAGACTGGAATACGTGGCGAACAAACTTTATTACACAACGGAGTCACCTAGTGCAG”, the binding signal is 6740 fluorescence intensity (a.u.).
